According to the supplement of paper PMC10849652:
This is one part of the list.

Chains of the proteins cited; added tags and fusions are not shown. Lines headed by an entry give the natural chain unless they say otherwise; changes in a name come on top.
UniProt P30049: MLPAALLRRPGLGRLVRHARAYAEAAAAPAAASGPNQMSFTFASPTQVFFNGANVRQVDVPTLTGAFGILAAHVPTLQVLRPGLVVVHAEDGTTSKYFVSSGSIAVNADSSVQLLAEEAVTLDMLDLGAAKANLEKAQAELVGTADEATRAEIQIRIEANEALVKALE
UniProt Q93084: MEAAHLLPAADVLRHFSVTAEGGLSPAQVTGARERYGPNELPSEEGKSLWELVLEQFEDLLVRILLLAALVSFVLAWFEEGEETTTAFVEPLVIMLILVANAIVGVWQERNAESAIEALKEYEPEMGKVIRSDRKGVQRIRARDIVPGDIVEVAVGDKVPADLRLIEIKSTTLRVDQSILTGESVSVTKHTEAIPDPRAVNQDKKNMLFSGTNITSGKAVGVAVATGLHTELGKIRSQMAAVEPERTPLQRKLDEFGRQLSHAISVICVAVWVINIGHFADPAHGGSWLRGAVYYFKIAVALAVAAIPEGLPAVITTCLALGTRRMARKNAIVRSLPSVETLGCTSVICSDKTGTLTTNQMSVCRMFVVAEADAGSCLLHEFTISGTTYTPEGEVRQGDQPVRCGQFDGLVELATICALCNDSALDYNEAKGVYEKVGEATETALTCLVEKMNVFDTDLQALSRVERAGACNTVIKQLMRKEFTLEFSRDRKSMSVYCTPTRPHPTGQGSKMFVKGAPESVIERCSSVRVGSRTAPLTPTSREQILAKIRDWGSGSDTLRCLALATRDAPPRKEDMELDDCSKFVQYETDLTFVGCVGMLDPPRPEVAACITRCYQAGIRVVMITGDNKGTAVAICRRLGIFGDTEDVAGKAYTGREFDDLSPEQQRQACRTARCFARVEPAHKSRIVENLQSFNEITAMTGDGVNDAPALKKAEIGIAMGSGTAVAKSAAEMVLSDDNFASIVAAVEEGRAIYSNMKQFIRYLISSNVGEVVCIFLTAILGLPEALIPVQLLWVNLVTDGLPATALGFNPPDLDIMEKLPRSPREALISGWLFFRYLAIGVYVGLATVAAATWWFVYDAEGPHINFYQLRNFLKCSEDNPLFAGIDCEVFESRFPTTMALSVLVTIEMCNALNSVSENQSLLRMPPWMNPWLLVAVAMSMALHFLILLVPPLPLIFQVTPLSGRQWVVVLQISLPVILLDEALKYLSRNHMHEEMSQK
UniProt Q9Y679: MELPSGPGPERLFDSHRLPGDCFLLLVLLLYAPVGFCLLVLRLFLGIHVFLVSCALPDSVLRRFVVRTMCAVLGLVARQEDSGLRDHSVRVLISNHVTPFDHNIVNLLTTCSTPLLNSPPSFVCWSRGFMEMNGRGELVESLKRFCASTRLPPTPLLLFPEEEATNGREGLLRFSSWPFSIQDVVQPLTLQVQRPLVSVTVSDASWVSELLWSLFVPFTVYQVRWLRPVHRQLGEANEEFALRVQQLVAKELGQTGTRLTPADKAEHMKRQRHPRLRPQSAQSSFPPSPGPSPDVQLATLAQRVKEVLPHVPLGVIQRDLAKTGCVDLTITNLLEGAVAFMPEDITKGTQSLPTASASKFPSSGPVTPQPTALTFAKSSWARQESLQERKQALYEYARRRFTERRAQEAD
UniProt Q96A05, whole entry, looked up: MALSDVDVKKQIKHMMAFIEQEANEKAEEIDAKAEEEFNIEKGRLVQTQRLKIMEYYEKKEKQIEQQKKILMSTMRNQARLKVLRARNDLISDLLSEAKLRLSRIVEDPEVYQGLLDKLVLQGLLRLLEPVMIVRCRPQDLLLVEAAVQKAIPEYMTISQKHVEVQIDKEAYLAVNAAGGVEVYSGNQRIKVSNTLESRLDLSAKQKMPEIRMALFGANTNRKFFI
UniProt P56381: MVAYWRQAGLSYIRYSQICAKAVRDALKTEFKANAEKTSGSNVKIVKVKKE
UniProt O75787, whole entry, looked up: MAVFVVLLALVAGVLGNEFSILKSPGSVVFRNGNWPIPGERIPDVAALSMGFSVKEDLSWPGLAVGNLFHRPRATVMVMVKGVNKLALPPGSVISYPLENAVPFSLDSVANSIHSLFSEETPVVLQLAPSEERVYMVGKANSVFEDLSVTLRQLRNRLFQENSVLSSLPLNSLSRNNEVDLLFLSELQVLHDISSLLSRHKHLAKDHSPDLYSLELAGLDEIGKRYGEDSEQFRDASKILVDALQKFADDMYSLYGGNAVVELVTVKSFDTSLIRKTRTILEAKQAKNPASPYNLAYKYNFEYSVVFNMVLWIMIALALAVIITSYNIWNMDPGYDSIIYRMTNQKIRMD
UniProt Q6Y288: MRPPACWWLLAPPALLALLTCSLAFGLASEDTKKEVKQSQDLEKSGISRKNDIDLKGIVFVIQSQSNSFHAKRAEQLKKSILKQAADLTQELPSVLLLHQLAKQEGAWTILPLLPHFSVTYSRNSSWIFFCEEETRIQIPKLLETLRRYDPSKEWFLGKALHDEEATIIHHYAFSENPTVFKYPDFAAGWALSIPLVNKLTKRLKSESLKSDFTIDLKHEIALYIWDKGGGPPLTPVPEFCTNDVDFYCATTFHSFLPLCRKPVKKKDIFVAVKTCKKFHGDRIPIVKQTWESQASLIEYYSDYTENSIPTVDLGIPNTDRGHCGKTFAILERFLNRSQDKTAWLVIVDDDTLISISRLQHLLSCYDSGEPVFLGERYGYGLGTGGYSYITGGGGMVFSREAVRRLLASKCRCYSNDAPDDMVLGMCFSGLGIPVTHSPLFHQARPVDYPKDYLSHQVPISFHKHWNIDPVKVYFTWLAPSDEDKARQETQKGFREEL
UniProt Q9UBB4: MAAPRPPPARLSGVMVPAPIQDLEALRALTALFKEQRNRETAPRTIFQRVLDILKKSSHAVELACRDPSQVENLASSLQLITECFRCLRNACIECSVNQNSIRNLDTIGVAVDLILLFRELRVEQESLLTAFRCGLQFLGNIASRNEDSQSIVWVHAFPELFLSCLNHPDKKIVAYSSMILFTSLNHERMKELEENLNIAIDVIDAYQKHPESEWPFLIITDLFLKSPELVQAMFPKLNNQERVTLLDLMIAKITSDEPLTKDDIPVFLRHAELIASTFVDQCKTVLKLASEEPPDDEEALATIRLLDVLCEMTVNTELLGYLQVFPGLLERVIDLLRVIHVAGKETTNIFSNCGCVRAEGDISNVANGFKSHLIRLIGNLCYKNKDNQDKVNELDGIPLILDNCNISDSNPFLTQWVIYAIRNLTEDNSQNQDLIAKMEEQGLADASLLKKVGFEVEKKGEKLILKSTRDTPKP
UniProt Q5TC12: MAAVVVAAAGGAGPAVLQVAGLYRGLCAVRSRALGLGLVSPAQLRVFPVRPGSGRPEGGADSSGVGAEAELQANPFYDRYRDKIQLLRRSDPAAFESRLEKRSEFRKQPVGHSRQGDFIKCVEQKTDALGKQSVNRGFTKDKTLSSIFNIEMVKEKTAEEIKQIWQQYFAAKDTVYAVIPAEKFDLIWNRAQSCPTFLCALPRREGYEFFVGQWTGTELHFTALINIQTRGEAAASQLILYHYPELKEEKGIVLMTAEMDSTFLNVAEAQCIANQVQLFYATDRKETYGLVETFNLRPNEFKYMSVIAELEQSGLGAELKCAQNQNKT
UniProt Q676U5: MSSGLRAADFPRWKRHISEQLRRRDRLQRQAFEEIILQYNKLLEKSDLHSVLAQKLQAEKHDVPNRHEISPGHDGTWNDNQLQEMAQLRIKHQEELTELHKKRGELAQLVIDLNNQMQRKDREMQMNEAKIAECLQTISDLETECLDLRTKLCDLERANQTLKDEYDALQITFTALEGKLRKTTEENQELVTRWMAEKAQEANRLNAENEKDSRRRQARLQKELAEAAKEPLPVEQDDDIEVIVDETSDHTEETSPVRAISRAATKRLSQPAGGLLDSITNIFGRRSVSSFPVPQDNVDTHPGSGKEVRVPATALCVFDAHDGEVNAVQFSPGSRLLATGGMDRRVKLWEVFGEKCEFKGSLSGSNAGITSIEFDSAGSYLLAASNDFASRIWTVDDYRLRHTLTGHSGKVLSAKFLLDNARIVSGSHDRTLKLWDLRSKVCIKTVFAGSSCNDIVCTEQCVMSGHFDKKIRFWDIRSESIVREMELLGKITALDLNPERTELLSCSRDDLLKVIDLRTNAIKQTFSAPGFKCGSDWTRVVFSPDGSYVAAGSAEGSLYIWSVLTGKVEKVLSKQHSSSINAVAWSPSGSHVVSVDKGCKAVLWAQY
UniProt Q5T6C5: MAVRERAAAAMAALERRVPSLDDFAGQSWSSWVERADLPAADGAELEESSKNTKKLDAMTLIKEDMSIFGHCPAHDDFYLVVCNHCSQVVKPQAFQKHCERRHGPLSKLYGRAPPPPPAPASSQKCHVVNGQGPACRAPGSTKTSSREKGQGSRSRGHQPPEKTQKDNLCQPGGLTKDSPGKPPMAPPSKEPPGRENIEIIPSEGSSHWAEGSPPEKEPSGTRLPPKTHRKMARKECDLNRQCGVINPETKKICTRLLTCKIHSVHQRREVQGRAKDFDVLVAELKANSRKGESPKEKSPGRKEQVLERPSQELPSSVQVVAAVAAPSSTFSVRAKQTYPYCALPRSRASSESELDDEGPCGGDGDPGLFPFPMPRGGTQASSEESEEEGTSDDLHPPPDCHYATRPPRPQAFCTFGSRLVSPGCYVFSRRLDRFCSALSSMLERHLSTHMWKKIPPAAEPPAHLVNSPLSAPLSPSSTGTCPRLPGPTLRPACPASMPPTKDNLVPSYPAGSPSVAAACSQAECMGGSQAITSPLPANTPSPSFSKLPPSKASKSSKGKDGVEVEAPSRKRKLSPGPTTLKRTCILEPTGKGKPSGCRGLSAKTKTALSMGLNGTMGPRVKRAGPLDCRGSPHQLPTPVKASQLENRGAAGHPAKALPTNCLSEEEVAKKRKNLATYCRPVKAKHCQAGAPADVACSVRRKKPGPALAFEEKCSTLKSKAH
UniProt P54709, whole entry, looked up: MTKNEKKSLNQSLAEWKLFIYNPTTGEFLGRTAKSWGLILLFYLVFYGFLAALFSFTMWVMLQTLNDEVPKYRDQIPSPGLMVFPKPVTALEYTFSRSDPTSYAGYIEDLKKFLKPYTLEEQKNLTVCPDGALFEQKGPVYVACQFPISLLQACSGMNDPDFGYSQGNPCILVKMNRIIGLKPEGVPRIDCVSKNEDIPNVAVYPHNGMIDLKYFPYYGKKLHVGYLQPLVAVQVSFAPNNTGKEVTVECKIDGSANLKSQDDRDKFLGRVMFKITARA
UniProt P16615: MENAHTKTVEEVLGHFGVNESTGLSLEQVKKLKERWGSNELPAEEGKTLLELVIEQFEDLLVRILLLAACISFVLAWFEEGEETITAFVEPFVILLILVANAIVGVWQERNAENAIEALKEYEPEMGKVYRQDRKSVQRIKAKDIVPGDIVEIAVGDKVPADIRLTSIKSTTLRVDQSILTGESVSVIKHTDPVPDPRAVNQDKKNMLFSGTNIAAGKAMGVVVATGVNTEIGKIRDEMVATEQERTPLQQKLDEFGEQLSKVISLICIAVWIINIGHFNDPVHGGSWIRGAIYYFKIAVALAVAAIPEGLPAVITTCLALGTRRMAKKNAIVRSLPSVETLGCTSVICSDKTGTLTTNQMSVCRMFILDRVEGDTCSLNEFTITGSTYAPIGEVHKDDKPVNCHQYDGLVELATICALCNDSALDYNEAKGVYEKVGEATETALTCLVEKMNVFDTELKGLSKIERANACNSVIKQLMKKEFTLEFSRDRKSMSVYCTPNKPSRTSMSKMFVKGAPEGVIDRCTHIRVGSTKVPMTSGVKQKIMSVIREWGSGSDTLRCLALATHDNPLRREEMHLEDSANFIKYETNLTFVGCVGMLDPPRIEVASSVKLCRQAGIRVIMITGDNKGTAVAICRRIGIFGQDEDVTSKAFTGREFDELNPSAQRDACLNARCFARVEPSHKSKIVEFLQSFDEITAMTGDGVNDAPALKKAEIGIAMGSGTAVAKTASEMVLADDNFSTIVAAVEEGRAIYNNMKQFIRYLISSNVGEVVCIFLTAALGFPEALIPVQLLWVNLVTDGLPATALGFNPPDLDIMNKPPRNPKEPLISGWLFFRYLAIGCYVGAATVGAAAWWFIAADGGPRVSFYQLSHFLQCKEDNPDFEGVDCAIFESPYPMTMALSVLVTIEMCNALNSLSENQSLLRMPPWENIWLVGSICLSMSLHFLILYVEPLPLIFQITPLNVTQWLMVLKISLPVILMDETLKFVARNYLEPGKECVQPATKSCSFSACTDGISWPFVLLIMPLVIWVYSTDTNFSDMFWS
UniProt O75947: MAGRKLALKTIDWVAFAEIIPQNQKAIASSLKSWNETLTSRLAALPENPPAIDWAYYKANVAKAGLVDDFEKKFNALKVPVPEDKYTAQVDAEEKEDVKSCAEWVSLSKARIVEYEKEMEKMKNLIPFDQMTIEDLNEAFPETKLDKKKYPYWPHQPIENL
UniProt Q9BSB4: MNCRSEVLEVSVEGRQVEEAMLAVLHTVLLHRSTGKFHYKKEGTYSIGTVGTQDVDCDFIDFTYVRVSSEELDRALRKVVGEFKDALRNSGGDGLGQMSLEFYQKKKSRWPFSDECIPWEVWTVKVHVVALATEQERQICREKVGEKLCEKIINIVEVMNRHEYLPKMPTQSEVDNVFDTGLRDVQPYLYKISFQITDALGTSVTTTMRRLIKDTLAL

How the values were obtained:
Assay in all cases: log2 fold change, soluble protein after heating vs DMSO (PISA); higher = thermal stabilisation; K562 lysate, 10 uM; active = over 0.2 and 3.5 SD of the protein, either way, in both replicates (recomputed)
[1] = compound: NCC(=O)Nc1ccc(-n2nc(C(F)(F)F)cc2-c2ccc3c(ccc4ccccc43)c2)cc1
How it was run: (§1)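 Pellets of K562 cells were dounce-homogenised in PBS pH 7.4 with 1 mM MgCl2, and the crude extract was held at 1 mg/mL protein for a 30 min treatment with 10 μM compound. Aliquots were heated for 3 min over 48°C-58°C and pooled before NP-40 was added to 0.5% at 4°C. The supernatant from 21,000xg for 90 min was quantified by TMTpro 16plex LC-MS/MS with channel sums equalised. Values are reported from duplicates as log-two fold change in thermal stability relative to solvent controls.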

[2] = compound: O=C(CCCCCCC(=O)Nc1ccccc1)NO [vorinostat]
How it was run: as §1

[3] = compound: O=C(O)c1ccc2c(c1)nc(Nc1cccc(Cl)c1)c1ccncc12 [silmitasertib]
How it was run: as §1

[4] = compound: O=C1NC(=O)C(c2cnc3ccccn23)=C1c1cn2c3c(cc(F)cc13)CN(C(=O)N1CCCCC1)CC2
How it was run: as §1

[5] = compound: c1cn2cc(-c3ccc4cn[nH]c4c3)nc(Nc3ccc(N4CCOCC4)cc3)c2n1 [entospletinib]
How it was run: as §1

Measured: log2 fold change

ATP5F1D (UniProt P30049)
inactive: [1] -0.079 | [2] 0.135 | [3] 0.027 | [4] 0.019 | [5] -0.036

ATP2A3 isoform 2 (UniProt Q93084)
inactive: [1] -0.037 | [2] -0.047 | [3] 0.054 | [4] -0.008 | [5] -0.017

AUP1 (UniProt Q9Y679)
inactive: [1] -0.043 | [2] -0.16 | [3] 0.059 | [4] 0.006 | [5] 0.042

ATP6V1E2 (UniProt Q96A05)
inactive: [1] 0.046 | [2] 0.114 | [3] -0.006 | [4] 0.003 | [5] -0.003

ATP6V0A1 isoform 3 (UniProt Q93050)
inactive: [1] 0.001 | [2] 0.12 | [3] -0.014 | [4] 0.041 | [5] -0.026

ATAD3A (UniProt Q9NVI7)
inactive: [1] -0.054 | [2] 0.086 | [3] -0.038 | [4] 0.001 | [5] 0

ATP1A3 isoform 3 (UniProt P13637)
inactive: [1] 0.028 | [2] 0.087 | [3] 0.003 | [4] 0.004 | [5] 0.006

ATP5F1E (UniProt P56381)
inactive: [1] -0.021 | [2] 0.007 | [3] 0.032 | [4] -0.036 | [5] -0.035

ATP6AP2 (UniProt O75787)
inactive: [1] -0.017 | [2] 0.106 | [3] 0.004 | [4] 0.005 | [5] -0.044

B3GLCT (UniProt Q6Y288)
inactive: [1] -0.041 | [2] 0.059 | [3] 0.002 | [4] -0.011 | [5] -0.012

ATP5F1B (UniProt F8W0P7)
inactive: [1] 0.177 | [2] 0.302 | [3] -0.079

AURKAIP1 (UniProt Q9NWT8)
inactive: [1] 0.073 | [2] 0.08 | [3] -0.01 | [4] 0.071 | [5] -0.081

ATXN10 (UniProt Q9UBB4)
inactive: [1] 0.017 | [2] -0.049 | [3] 0.006 | [4] -0.022 | [5] 0.005

ATPAF1 (UniProt Q5TC12)
inactive: [1] 0.086 | [2] 0.01 | [3] -0.02 | [4] -0.003 | [5] -0.03

ATP6V1C1 (UniProt P21283)
inactive: [1] -0.025 | [2] 0.01 | [3] 0.006 | [4] -0.032 | [5] 0.019

ATRIP (UniProt Q8WXE1)
inactive: [1] -0.088 | [2] -0.28 | [3] 0.229 | [4] 0.039 | [5] -0.009

ATG16L1 (UniProt Q676U5)
inactive: [1] 0.023 | [2] 0.07 | [3] -0.007 | [4] -0.026 | [5] -0.033

ATXN7L2 (UniProt Q5T6C5)
inactive: [1] -0.039

ATP1B2 (UniProt P14415)
inactive: [1] -0.243 | [2] 0.283 | [3] 0

ATP1B3 (UniProt P54709)
inactive: [1] -0.003 | [2] 0.136 | [3] -0.028 | [4] -0.004 | [5] -0.023

ATP2A2 (UniProt P16615)
inactive: [1] -0.034 | [2] -0.027 | [3] 0.023 | [4] 0.019 | [5] 0.026

ATP5PD (UniProt O75947)
inactive: [1] -0.01 | [2] 0.107 | [3] -0.013 | [4] 0.044 | [5] -0.012

ATL2 (UniProt Q8NHH9)
inactive: [1] -0.014 | [2] 0.008 | [3] 0.003 | [4] -0.025 | [5] -0.03

ATG101 (UniProt Q9BSB4)
inactive: [1] -0.01 | [2] 0.087 | [3] -0.069 | [4] -0.094 | [5] -0.001

2 consecutive records from above:
ATP5PD (UniProt O75947)
inactive: [1] -0.01 | [2] 0.107 | [3] -0.013 | [4] 0.044 | [5] -0.012

ATL2 (UniProt Q8NHH9)
inactive: [1] -0.014 | [2] 0.008 | [3] 0.003 | [4] -0.025 | [5] -0.03

More results.

ASNS (UniProt P08243)
active: [2] -0.373
inactive: [1] 0.006 | [3] -0.01 | [4] -0.008 | [5] 0.029
